# Out of some 31,000 sequences screened, about 1,400 (4.5%) were called active.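 The calls were made as follows: active = median seed-adjusted z-score above 1 or below -1; inactive = the rest.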 Some of the results follow.
# Test: Novel Modifiers of Survival Motor Neuron (SMN) Protein: Gene Identification via Genome-wide siRNA Screen;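 also: luminescence tracks full-length SMN protein made from the SMN2 reporter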
# Details: HEK293T SMN2-luciferase reporter, siRNA knockdown, 72 h; actives lie on both sides
# How it was run: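 Steps: spot 1 pmol siRNA, add Lipofectamine RNAiMax in serum-free DMEM, seed HEK293T SMN2–luciferase reporter cells; incubate 72 h at 37 °C; add ONE-Glo; normalize luminescence to control siRNA, log10, MAD. Candidates: |MAD| > 1.0.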
row,Sequence,median seed-adjusted z-score
1,GCAUCUUUCUGAGUUCACUTT against SLC22A11,inactive: 0
2,GGCUGUCAUCAAUACCGUUTT against TMLHE,inactive: -0.241
3,GCACCGACAAGGAUGGAAATT against GRIP2,inactive: -0.0256
4,GAACAGUGUUUGUCAGCAUTT against ASAH2,inactive: 0.615
5,AGGACCAAAUGUCAAUUUATT against IL1RN,inactive: 0.283
6,GUUUAACCCAGGAAUCACATT against KNG1,inactive: 0
7,CCAUAUUCCUCAUGCAUGUTT against FCRL5,inactive: -0.138
8,GGAGUUUCCCAUACGAAUUTT against SPG3A,inactive: 0.203
9,GUUCAUCUCUUGUAAGGAUTT against CABP5,inactive: 0.372
10,GGAUUUCACUGUGAUCGAATT against DPYD,inactive: -0.112
11,GAGUGUAUGGUGUUACGUATT against USP16,inactive: -0.173
12,GGAGAAUUCAAUACCUUAATT against LCTL,inactive: -0.0821
13,CCGACAGUGUCACCAGUAATT against RAET1E,inactive: -0.616
14,CCAGAUUGCUAGUAUCUCATT against TRAK1,inactive: 0.298
15,CUCUCCACCUGAUUACAGATT against TKTL1,inactive: -0.495
16,GGGAUGCUCUAUUCUGGUATT against SEMA4A,inactive: 0.0377
17,CCCUCGUAUUUACAACAAATT against CUL5,inactive: 0.0143
18,GCAUGAAUGCUUUACAGUUTT against CUGBP2,inactive: -0.532
19,CAUACAUGUUGCUAACCAATT against PCDH12,inactive: 0.0177
20,CAGCAGCAAGUGUCCCAAATT against CCL2,inactive: 0.651
21,CUGGAAUAAUCAUAAGAAATT against EDN1,inactive: 0.0717
22,UCUCUCCUAUGGAAACAAATT against GZMH,inactive: 0.946
23,GGAACUACGGCGAUAUCUATT against MICA,inactive: -0.0635

row,Sequence,median seed-adjusted z-score
1,GCAUAGAACCAGUCAAUGATT against PGBD1,inactive: 0.925
2,GGACAAGGGAUUAAUAGUATT against ARID1A,active: -1.14
3,GGACAUCGGGAAGAACAUUTT against NOB1,inactive: -0.0844
4,CCAAUCUUCUGGACUUUGATT against FTCD,inactive: -0.27
5,CCUAAAUUCUGUCACGGUATT against GLG1,inactive: 0.308
6,GGAAGUAAUAAGAUUGAAATT against RXFP1,inactive: 0.314
7,GCACCAACAUCUACGAGCATT against CDH23,inactive: -0.918
8,GGAGUAAAGCUGUUGAAGATT against LRRIQ1,inactive: 0
9,CCUUUUUCUGCUUCACCAATT against TBC1D13,inactive: 0.33
10,CCACAAUACUUUCGUAUGATT against DCHS2,inactive: 0
11,CUCUGGAUCCUGAUCAGUUTT against SLC46A2,inactive: 0
12,CUUGCAAAAUGUACACGAATT against AS3MT,inactive: -0.74
13,AUCCUGAAGUGAAUCCCUATT against ZNF273,inactive: 0.0489
14,AGAUUGAGGAUUUACAAGATT against CHMP5,inactive: 0
15,GCACUCCCUCUACACCACATT against SIPA1,inactive: -0.0872
16,CAUCCCGUCUCAUUAAACATT against ZNF417,inactive: 0.0205
17,ACAACUUCAUAUCCAGCUUTT against ISLR2,inactive: 0.263
18,GCCCAACAGUCAUUCAACATT against CHMP5,inactive: 0
19,CAAUACCCUGAAUUCGAAATT against DSG2,inactive: -0.285
20,GGAUAUGCUUGGUCGGGUATT against ATP6V1B2,inactive: 0.24
21,CACUGUACAUUUUCCGACATT against UBE2D1,inactive: 0.508
22,UGAGUGUUUUCACAUCUUUTT against NR2C2,inactive: -0.498
23,AGAUAGUGACGACAGCCUATT against NRCAM,inactive: -0.0304

row,Sequence,median seed-adjusted z-score
1,GGAUUUCACUGGCAAAGUGTT against WWOX,inactive: -0.583
2,GGAGAUUCACGAGCUGCGATT against EGFL8,inactive: 0.365
3,GAGCGAGAAGAGUUCUAUATT against ATP6V1D,inactive: 0.594
4,UGAUCAAUCGGAUUGAGAATT against STX4,inactive: 0.759
5,CAAUCUUACCAGGAGAUAATT against MOXD1,inactive: -0.162
6,CAAAUACCGUUAAGCUGGATT against HBA1,active: -1.03
7,GGAUUGAACUUUCGAAUUATT against KNG1,inactive: 0
8,CGAUGUCAGCAUUUCCGUUTT against EPRS,inactive: -0.391
9,GCUUGUCACCGUUCGAGCATT against UQCRQ,inactive: 0.0241
10,CUAUGCUACCCUCUACUUUTT against AP3S2,inactive: 0.521
11,CAUAAAGUUAAAUCCCUUATT against KCNS2,inactive: 0.0597
12,GCAUUGAAAUUUCCAGCGATT against GABRP,inactive: -0.441
13,GAUCUUUACGACAACCAGATT against PPP1R7,inactive: 0.0505
14,CCCUCGAAUUCGCAUAGAATT against DIS3,inactive: 0.266
15,GGAUGACAUGUCUAGCAUUTT against NXF1,active: -4.46
16,GCAUGCCCAUGACCAUGGUTT against ARHGAP27,inactive: -0.777
17,CAUUCACUGAGGCGACAGATT against ABCA9,inactive: -0.139
18,GCCCAGAAGUUUAUAGACATT against MYO7B,inactive: -0.167
19,CCGGGACAGUGACAUCAUATT against ENDOD1,inactive: -0.138
20,CCAGGAACAAAUGACGAAATT against ZSWIM2,inactive: -0.199
21,GGAUCGUGAUUAAGAUCGATT against ZNF777,inactive: 0.128
22,GGAUGUUAGAUGUCUGGUATT against IL12RB2,inactive: 0.368
23,GGAACAACGUGGACCCAUATT against CAPN1,inactive: 0.282

# Part of the list above in a different format.
row	Sequence	median seed-adjusted z-score
10	CCACAAUACUUUCGUAUGATT against DCHS2	inactive: 0
11	CUCUGGAUCCUGAUCAGUUTT against SLC46A2	inactive: 0
12	CUUGCAAAAUGUACACGAATT against AS3MT	inactive: -0.74
13	AUCCUGAAGUGAAUCCCUATT against ZNF273	inactive: 0.0489
14	AGAUUGAGGAUUUACAAGATT against CHMP5	inactive: 0
15	GCACUCCCUCUACACCACATT against SIPA1	inactive: -0.0872
16	CAUCCCGUCUCAUUAAACATT against ZNF417	inactive: 0.0205
17	ACAACUUCAUAUCCAGCUUTT against ISLR2	inactive: 0.263
18	GCCCAACAGUCAUUCAACATT against CHMP5	inactive: 0
19	CAAUACCCUGAAUUCGAAATT against DSG2	inactive: -0.285
20	GGAUAUGCUUGGUCGGGUATT against ATP6V1B2	inactive: 0.24
21	CACUGUACAUUUUCCGACATT against UBE2D1	inactive: 0.508
22	UGAGUGUUUUCACAUCUUUTT against NR2C2	inactive: -0.498
23	AGAUAGUGACGACAGCCUATT against NRCAM	inactive: -0.0304
1	GGAUUUCACUGGCAAAGUGTT against WWOX	inactive: -0.583
2	GGAGAUUCACGAGCUGCGATT against EGFL8	inactive: 0.365
3	GAGCGAGAAGAGUUCUAUATT against ATP6V1D	inactive: 0.594
4	UGAUCAAUCGGAUUGAGAATT against STX4	inactive: 0.759
